Data on 24 targets can be found in the supplement of paper PMC12819154, “High-throughput peptide-centric local stability assay extends protein–ligand identification to membrane proteins, tissues and bacteria” (Nature Structural & Molecular Biology, 2025).

By UniProt entry, the sequences of proteins in these tests, tags left out. Where a name states a change or a piece, a line headed by the entry shows the natural chain unless it says otherwise.
UniProt Q6P069: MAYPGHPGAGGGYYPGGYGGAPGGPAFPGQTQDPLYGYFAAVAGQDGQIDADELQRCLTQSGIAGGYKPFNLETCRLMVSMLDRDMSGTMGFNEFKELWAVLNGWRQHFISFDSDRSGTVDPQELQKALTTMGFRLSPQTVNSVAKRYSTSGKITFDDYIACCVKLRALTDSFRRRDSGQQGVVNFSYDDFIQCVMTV
UniProt Q6P539: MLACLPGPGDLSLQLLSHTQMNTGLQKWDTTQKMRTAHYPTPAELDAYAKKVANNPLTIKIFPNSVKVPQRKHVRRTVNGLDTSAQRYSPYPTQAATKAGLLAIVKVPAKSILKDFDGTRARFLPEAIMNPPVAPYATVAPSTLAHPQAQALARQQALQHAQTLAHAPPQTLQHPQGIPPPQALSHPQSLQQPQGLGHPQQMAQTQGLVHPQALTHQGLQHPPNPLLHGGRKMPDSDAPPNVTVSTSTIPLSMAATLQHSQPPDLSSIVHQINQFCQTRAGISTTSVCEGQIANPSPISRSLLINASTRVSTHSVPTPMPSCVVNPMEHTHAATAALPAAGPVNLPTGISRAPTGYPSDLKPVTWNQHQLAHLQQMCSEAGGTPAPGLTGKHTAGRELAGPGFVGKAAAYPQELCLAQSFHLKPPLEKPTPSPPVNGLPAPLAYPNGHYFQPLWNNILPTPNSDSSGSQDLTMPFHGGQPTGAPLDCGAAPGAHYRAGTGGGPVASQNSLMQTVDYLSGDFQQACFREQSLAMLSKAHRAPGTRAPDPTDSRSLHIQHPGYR
UniProt Q6A065: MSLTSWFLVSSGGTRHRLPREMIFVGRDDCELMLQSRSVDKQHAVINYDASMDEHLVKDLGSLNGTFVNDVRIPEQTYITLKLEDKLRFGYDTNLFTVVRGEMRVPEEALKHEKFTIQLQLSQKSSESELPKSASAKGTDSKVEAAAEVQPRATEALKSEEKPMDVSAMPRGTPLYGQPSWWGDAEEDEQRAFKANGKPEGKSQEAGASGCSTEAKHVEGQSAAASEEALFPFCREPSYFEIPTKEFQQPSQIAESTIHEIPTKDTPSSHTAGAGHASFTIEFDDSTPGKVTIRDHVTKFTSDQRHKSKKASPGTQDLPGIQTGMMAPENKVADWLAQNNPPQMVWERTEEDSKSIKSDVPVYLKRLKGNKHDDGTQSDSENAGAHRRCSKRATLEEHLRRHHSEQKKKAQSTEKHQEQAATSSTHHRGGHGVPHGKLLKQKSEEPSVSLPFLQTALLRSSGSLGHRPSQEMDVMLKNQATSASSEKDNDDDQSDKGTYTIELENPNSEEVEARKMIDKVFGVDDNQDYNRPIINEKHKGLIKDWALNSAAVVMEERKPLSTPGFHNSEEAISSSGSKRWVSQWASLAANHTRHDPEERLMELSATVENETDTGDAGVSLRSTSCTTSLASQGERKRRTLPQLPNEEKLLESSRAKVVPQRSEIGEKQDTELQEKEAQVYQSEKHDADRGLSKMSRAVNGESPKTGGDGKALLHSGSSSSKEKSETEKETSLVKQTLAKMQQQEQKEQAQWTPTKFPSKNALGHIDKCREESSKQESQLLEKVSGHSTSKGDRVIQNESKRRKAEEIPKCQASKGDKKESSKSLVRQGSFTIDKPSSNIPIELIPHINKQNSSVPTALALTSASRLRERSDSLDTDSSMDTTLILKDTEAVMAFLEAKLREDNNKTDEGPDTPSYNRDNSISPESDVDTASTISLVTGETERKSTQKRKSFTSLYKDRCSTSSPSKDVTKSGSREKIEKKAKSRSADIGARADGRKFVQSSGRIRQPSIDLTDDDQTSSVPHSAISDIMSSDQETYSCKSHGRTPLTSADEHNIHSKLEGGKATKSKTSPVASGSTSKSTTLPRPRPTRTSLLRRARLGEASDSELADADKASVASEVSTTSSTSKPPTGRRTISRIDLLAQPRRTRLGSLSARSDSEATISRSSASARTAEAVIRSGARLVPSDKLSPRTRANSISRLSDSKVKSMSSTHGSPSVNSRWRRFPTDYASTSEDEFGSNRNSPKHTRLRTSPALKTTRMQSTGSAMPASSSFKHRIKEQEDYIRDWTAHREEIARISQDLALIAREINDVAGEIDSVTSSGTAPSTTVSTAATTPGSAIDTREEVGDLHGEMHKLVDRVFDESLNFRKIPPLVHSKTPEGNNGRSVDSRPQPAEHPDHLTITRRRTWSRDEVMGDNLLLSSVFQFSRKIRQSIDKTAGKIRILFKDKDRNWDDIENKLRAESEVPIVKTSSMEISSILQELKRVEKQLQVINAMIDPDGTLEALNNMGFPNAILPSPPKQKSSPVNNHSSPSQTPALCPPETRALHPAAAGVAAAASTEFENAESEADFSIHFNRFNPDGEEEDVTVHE
UniProt Q6P4T1: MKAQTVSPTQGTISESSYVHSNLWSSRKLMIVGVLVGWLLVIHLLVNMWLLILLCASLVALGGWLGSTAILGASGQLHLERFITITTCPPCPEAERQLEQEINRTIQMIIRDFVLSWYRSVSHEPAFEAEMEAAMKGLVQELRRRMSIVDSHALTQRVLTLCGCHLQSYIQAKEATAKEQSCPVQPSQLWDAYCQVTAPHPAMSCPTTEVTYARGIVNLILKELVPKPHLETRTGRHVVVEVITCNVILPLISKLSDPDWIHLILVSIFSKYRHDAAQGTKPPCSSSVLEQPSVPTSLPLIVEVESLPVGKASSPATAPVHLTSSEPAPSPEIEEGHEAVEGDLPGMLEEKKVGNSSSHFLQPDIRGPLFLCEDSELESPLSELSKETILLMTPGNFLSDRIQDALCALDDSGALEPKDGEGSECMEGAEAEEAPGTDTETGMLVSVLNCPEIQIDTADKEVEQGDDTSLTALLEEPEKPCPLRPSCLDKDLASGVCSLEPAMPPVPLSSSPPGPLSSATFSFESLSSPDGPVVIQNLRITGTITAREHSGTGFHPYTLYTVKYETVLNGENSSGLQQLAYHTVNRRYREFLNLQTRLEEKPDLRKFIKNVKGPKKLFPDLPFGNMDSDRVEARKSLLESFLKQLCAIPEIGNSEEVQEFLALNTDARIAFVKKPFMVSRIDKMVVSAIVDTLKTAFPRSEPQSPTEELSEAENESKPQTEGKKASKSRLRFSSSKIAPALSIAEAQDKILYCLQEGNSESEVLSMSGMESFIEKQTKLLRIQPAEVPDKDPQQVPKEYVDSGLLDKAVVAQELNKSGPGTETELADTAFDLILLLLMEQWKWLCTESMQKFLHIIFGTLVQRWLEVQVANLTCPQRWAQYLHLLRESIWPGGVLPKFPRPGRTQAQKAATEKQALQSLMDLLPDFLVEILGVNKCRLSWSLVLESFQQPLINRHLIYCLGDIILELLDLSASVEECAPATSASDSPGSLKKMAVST
UniProt Q6QD59: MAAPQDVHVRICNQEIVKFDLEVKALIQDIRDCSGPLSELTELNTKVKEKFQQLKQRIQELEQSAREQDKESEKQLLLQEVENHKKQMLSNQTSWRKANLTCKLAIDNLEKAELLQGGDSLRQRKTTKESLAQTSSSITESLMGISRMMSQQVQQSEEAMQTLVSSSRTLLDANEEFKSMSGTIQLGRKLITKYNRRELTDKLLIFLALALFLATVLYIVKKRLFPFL
UniProt Q6P1E1: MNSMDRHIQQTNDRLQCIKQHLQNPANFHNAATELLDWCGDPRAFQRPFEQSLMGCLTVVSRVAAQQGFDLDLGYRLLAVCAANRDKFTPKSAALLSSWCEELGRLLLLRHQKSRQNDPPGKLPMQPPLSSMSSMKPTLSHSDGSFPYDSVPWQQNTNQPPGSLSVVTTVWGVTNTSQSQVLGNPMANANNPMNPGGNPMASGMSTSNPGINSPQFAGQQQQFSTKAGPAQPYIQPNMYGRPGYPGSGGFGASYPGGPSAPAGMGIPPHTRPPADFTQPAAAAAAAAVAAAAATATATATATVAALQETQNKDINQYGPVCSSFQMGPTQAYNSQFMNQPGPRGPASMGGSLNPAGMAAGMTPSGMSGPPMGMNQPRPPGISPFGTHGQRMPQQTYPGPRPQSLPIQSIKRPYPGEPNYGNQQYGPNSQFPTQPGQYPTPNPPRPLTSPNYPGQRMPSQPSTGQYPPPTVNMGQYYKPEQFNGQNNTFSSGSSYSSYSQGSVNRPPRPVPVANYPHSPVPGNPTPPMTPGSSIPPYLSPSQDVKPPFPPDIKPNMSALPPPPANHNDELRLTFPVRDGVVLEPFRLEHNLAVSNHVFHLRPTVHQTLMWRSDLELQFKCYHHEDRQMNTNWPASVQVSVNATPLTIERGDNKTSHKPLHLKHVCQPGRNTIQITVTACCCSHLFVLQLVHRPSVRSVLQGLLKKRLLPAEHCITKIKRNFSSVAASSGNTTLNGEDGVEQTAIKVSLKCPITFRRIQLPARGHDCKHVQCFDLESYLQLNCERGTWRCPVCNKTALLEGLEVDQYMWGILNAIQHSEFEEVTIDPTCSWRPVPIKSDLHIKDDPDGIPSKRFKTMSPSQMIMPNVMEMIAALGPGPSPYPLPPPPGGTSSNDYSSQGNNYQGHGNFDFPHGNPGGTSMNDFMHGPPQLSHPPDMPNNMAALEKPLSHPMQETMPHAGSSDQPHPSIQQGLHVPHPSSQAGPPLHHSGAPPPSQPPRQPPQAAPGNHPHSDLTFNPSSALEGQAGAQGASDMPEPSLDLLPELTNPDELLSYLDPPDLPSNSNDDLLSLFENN
UniProt Q6IQX8: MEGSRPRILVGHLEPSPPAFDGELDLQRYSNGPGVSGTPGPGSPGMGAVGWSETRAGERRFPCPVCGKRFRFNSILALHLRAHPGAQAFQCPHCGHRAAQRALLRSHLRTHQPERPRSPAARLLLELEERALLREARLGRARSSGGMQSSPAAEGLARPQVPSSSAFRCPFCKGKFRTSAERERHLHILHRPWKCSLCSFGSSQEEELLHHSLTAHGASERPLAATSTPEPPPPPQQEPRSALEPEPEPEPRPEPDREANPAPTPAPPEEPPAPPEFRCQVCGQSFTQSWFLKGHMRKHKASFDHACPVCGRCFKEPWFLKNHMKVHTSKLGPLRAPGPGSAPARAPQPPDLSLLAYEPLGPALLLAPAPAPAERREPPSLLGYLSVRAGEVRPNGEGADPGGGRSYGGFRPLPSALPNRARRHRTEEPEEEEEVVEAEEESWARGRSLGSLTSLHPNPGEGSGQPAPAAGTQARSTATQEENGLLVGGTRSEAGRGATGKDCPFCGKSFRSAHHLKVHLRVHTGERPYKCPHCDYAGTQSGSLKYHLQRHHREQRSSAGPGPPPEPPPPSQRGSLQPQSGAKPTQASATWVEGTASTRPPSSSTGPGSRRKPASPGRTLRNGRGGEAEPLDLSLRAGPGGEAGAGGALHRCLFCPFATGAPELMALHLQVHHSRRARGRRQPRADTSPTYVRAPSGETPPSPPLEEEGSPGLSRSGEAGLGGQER
UniProt Q6DG52: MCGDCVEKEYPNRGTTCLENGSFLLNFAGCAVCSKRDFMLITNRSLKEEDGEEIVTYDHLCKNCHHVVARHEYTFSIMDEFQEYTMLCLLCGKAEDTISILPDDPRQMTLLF
UniProt Q6P2B1: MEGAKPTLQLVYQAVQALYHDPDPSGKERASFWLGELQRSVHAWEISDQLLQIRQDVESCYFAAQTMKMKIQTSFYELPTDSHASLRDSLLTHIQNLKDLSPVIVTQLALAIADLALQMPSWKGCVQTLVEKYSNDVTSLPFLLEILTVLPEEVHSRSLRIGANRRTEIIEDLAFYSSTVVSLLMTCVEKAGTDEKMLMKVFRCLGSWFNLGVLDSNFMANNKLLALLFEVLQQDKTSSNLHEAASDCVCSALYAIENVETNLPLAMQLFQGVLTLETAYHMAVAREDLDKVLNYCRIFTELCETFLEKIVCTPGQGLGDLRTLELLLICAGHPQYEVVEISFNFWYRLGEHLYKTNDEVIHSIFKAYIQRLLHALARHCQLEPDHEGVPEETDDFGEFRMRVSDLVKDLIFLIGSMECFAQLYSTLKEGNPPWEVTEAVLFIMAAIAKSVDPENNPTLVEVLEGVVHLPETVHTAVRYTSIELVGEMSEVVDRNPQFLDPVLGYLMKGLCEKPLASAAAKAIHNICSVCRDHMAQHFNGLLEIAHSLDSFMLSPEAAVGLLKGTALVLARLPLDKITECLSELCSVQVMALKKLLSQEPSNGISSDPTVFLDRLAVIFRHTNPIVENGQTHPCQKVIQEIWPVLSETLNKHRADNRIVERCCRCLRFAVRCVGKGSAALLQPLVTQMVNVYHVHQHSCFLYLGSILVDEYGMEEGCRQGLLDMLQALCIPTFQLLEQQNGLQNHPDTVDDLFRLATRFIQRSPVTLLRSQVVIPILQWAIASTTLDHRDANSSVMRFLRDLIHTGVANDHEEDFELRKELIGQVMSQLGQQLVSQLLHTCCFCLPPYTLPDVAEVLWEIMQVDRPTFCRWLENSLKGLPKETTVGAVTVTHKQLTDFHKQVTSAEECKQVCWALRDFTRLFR

The other results are listed elsewhere or left out. Most values lie at the level of the controls, where differences are scatter.

Compound in the assay: CN[C@@H]1C[C@H]2O[C@@](C)([C@@H]1OC)n1c3ccccc3c3c4c(c5c6ccccc6n2c5c31)C(=O)NC4 [staurosporine]
The assay can be described thus: log2 fold change of tryptic peptide abundance, ligand vs vehicle (limited proteolysis) (log2 ratio); higher = more trypsin-susceptible (destabilized). Particulars: ligand concentration: 20 uM; sample: mouse liver crude lysate; replicate design: treated separately.
Turning to “UniProt Q6P069 (peptide sequence: ALTDSFRR, peptide start residue: 168)”, the log2 fold change stood at 0.631.

“UniProt Q6P9S0 (peptide sequence: VADMATNTR, peptide start residue: 61)”: the log2 fold change was 0.184.

On to “UniProt Q6GQV7 (peptide sequence: TEHAFQLIR, peptide start residue: 1114)”, for which the log2 fold change came out at 0.542.

In the case of “UniProt Q6PFX9 (peptide sequence: LVDAANVNAK, peptide start residue: 194)”, the log2 fold change is -0.2.

As to “UniProt Q6PE65 (peptide sequence: HPALSAIIR, peptide start residue: 97)”, the log2 fold change was 0.287.

As for “UniProt Q6P539 (peptide sequence: EQSLAMLSK, peptide start residue: 528)”, the log2 fold change was 0.104.

Take “UniProt Q6NXK2 (peptide sequence: QVTIKPVATAFLPVSAVK, peptide start residue: 441)”: the log2 fold change was -0.157.

In the case of “UniProt Q6PR54 (peptide sequence: SEEALIGR, peptide start residue: 2003)”, the log2 fold change came out at 0.48.

Regarding “UniProt Q6A065 (peptide sequence: ATEALKSEEKPMDVSAMPR, peptide start residue: 153)”, the log2 fold change is -0.658.

Consider “UniProt Q6NWW9 (peptide sequence: VYAVYNSVK, peptide start residue: 358)”, for which the log2 fold change was 0.408.

On to “UniProt Q6PDQ2 (peptide sequence: MLDLLEDFLEHEGYKYER, peptide start residue: 1071)”, for which the log2 fold change turned out to be 0.969.

In the case of “UniProt Q6PFR5 (peptide sequence: VDYSITKR, peptide start residue: 190)”, the log2 fold change is 0.358.

Take “UniProt Q6P4T1 (peptide sequence: AVVAQELNK, peptide start residue: 808)”: the log2 fold change worked out at 0.233.

Turning to “UniProt Q6AW69 (peptide sequence: DLQDQLSEMHDELDSTKR, peptide start residue: 698)”, the log2 fold change is 0.685.

As for “UniProt Q6QD59 (peptide sequence: QRIQELEQSAR, peptide start residue: 56)”, the log2 fold change was -0.245.

As to “UniProt Q6P1B1 (peptide sequence: SAGHHLVPVKENLVDK, peptide start residue: 138)”, the log2 fold change came to 0.411.

“UniProt Q6PAL7 (peptide sequence: ASTVSPGGYMVPK, peptide start residue: 1056)”: the log2 fold change turned out to be 0.615.

As to “UniProt Q6P1E1 (peptide sequence: LLPAEHCITK, peptide start residue: 706)”, the log2 fold change was determined as 0.094.

As to “UniProt Q69ZZ6 (peptide sequence: IAYQSYER, peptide start residue: 533)”, the log2 fold change was found to be 0.482.

With “UniProt Q6IQX8 (peptide sequence: AHPGAQAFQCPHCGHR, peptide start residue: 82)”, the log2 fold change was determined as 0.797.

As to “UniProt Q6PIE5 (peptide sequence: ACVVHGSDLK, peptide start residue: 662)”, the log2 fold change was -0.172.

As for “UniProt Q6PDI6 (peptide sequence: GSGPVGDTGTCR, peptide start residue: 110)”, the log2 fold change came out at 0.317.

“UniProt Q6DG52 (peptide sequence: CGDCVEKEYPNR, peptide start residue: 2)”: the log2 fold change worked out at 0.146.

“UniProt Q6P2B1 (peptide sequence: QVTSAEECKQVCWALR, peptide start residue: 901)”: the log2 fold change is -0.257.
